Measured values as given in paper PMC10163288.
The other results are listed elsewhere or left out.

B1: il10ra_site1_normal_mot_HHH_b2_00230_000000227_0001_1_19_H_._HHH_b2_06600_0001_0000200024_0000001_0 (protein)
chain: SSSSSNDELYELVRELIKALRHGDEELFEKLLEEAEKLAEELNDFAVKFVLRLLERQLRHSSSSS
B2: il10ra_site1_normal_mot_HHH_b1_04175_af2_000000064_0001_24_41_H_._HHH_b2_08305_0001_0000100006_0000001_0_af2pred_0001 (protein)
chain: SSSSDVEEEVERLLEEAKHIEDPEELAEVLLEATELAWKNNDPELIHLVAKVAKEIKEELSSSSS
B3: il10ra_site1_sap_17_mot_HHH_b2_00984_000000042_0001_1_20_H_._HHH_b1_04789_af2_0001_0000100010_0000001_0_0001 (protein)
chain: SSSSSSDDRVARILMRASRAAFRGNHEEARELLEEAEEIVRELGDEHLLELIEDLLKSFSSSSSS
B4: il10ra_site1_sap_16_mot_HHH_b2_00943_af2_000000149_0001_1_17_H_._HHH_b1_06222_0001_0000300032_0000001_0_0001_af2pred_dldesign_0_af2pred (protein)
chain: SSSSSPENEELVRLIREVAELLYDGKPEEAREKLKEAEELTEKLGDEIFKRNIELLRKELESSSS
B5: il10ra_site1_normal_mot_8756ee2cf497b5429c717dfc0c0bcfd6_0001_000000186_0001_1_13_H_._HHH_b2_04893_0001_0000400029_0000001_0_af2pred_0001 (protein)
chain: SSSSDLSERVLELLREAVELYRNGNPEEAREVLEEAQELAEEGNSAVLEAQIRFLEKIVNSSSSS
B6: il10ra_site1_normal_mot_HHH_b1_08508_000000230_0001_42_56_H_._29942a5be24fc2f98b7700bb5318e672_0001_1_0001_0000300018_0000002_0 (protein)
chain: SEEEIEEILKELEERGNVAAFAILYFLRVLKKEGLSPKEAVELLLELAREQGNERAVRILEKLLK
B7: il10ra_site1_normal_mot_HHH_b2_00277_af2_000000172_0001_1_17_H_._HHH_b1_03696_0001_0000500029_0000002_0_af2pred_0001 (protein)
chain: SSSSSEEEIEERVKELLEEAKRIPDPKERSYVLIEAFALANRLNDDELKKLVEEVALELLSSSSS
B8: il10ra_site1_sap_15_mot_HHH_b1_03531_000000273_0001_41_54_H_._HHH_b2_00993_0001_0000200012_0000001_0_0001_af2pred_0001 (protein)
chain: SSSSTEEEIRELLEEVEELIERGNNHEAAKLLKKLAELISELNNDELLKELRELAQLVIRVSSSS
B9: il10ra_site1_sap_12_mot_HHH_b1_05329_000000008_0001_43_56_H_._HHH_b1_01196_af2_0001_0000500006_0000001_0_0001 (protein)
chain: SSSSSSEEELEELERELKEALEENDRQLVLELIIRLIRIAFQLNDPEALHLAFEAAKKLESSSSS
B10: il10ra_site1_sap_15_mot_HHH_b2_04586_000000230_0001_1_16_H_._7cf5847eaa050a71bc877a27954f5424_0001_1_af2_0001_0000300021_0000001_0_0001 (protein)
chain: SSSSDKAFEILRRVIEELLELFRNGNPEEAEELAREALEELRESGNRLAAWQLEEAIRLEKSSSS
B11: il10ra_site1_normal_mot_HHH_b1_05357_000000034_0001_23_39_H_._HHH_b2_03710_0002_0000100001_0000001_0_af2pred_0001 (protein)
chain: SSSSDEEEFQERVEELLEEAKKISDREEVAYLLIRAFALANQANDPELKELVEEVAKELISSSSS
B12: il10ra_site1_normal_mot_HHH_b1_03031_af2_000000117_0001_17_33_H_._HHH_b2_06828_af2_0001_0000700028_0000002_0_af2pred_0001 (protein)
chain: SSSSSEEVEKLIEEAKELLEEGNPEEAEELLAKALYLASRAGDRELALRITRLIAEILQSSSSSS
B13: il10ra_site1_normal_mot_HHH_b1_05672_af2_000000246_0001_1_19_H_._HHH_b1_01868_0001_0000500033_0000001_0 (protein)
chain: SSSSSEMEEYARIAARFARNAAETGNPELARRILRRAEEALKHANDEEALELIEELLEELSSSSS
B14: il10ra_site1_normal_mot_HHH_b2_00612_000000251_0001_1_14_H_._HHH_b1_00889_0002_0000300025_0000002_0 (protein)
chain: SSSSDEVLRIAREAVELLRELLERGDEEEAEEVLERARELLEEAGNQLAVESLEYFFRAFSSSSS
B15: il10ra_site1_normal_mot_HHH_b1_00814_af2_000000078_0001_43_57_H_._HHH_b2_07731_0001_0000100001_0000001_0_af2pred_0001 (protein)
chain: SSSSDTEERVEELLEQAEELHKEGNPEEAVRLIREAIELAAQANDPELAQLVAEFAAELISSSSS
B16: il10ra_site1_normal_mot_HHH_b1_07466_000000214_0001_1_19_H_._HHH_b1_02849_af2_0001_0000300013_0000002_0 (protein)
chain: SSSSSLERKVELAIRFAEALLKAGNPEAAERLIRLLLDVVRRLGNEELAEELERILEEIRKSSSS
B17: il10ra_site1_normal_mot_7f9b3cf633cfd27bca007b62ade1be3b_0001_1_000000138_0001_17_32_H_._513c16ae44941e68898e0f7c259e5a28_0001_1_af2_0001_0000600018_0000001_0 (protein)
chain: DELEERLEELVKRGDEEKVAELAVRVAEEKGVFSPEQLEALRRFIEALFKDNEEAAKELARAVIN
B18: il10ra_site1_normal_mot_HHH_b1_07835_af2_000000063_0001_1_16_H_._HHH_b1_07298_af2_0001_0000200003_0000001_0_af2pred_0001 (protein)
chain: SSSSDEEEKVRELLEELEELLEEGDEEKFAQLAAEVARRIDENNNEELFRLLIEILSKWLKSSSS
B19: il10ra_site1_sap_13_mot_HHH_b2_00093_af2_000000025_0001_40_54_H_._HHH_b1_02510_0001_0000200028_0000001_1_0001 (protein)
chain: SSSSSSDLEELLEEIEEAIEEGDREKALKLAQEAIRLAFQKRDEEVLQRVWELVKRLASSSSSSS
B20: il10ra_site1_sap_18_mot_HHH_b1_07466_000000214_0001_1_19_H_._HHH_b1_05714_0001_0000200012_0000001_0_0001 (protein)
chain: SSSSSDLAREVYELLREAVELLHEGDREEARKVLEEAEELAEEAGNLNMLFNVEMLQRIASSSSS
B21: il10ra_site1_normal_mot_HHH_b2_07521_000000141_0001_20_37_H_._HHH_b1_01332_0001_0000100002_0000001_0_af2pred_0001 (protein)
chain: SSSSDEEEKRLRLALRLARFLIEQGDEEAARKLLEWIRELAKRANDEEALEEAQRLLEEVGSSSS
B22: il10ra_site1_normal_mot_HHH_b1_05865_af2_000000211_0001_1_17_H_._HHH_b2_01928_0001_0000400023_0000001_0 (protein)
chain: SSSSSSDLYELARELLELAFRFRDQELLKLVWEAYREANEHNDPRLLEELLEEAEEELSSSSSSS
B23: il10ra_site1_sap_20_mot_49468d6c54d8157f7969f91124172a68_0001_af2_000000173_0001_37_51_H_._HHH_b2_03073_0001_0000400027_0000001_0_0001_af2pred_0001 (protein)
chain: SSSSDQEEHIARLIEKLARLLAKNGNPEDAKKTVENALHAAKVLNDEEAHEILEELLKELSSSSS
B24: il10ra_site1_normal_mot_HHH_b2_01705_af2_000000069_0001_44_57_H_._HHH_b1_08172_af2_0001_0000400018_0000001_1_af2pred_0001 (protein)
chain: SSSSDEEEERLEELLEELRRALEEGDFEEAWKILEEISRLASRLSDRELAREAIELFLRGSSSSS
B25: il10ra_site1_normal_mot_HHH_b2_00230_000000227_0001_1_19_H_._HHH_b2_02595_0001_0000100008_0000002_0 (protein)
chain: SSSSDEWYRALREAIEEVLRLFREGNPEEARRLLEEFLRELEELGNRQAALQLRFLLRRISSSSS
B26: il10ra_site1_normal_mot_HHH_b2_00622_af2_000000153_0001_40_57_H_._HHH_b1_00148_0001_0000300014_0000001_0_af2pred_0001 (protein)
chain: SSSSSEELLRRLLKAAEQLLEKGNPELAKLTLRDAIAAARALGDEELLRLLEELLEEIEKSSSSS
B27: il10ra_site1_sap_22_mot_HHH_b2_02354_af2_000000157_0001_40_56_H_._HHH_b2_00262_af2_0001_0000400007_0000002_0_0001_af2pred_0001 (protein)
chain: SSSSSSEELKKLLEEVFELLRQGNKEEAEELLEEALELAEKLNDPLLVLLESLLEHIRGSSSSSS
B28: il10ra_site1_normal_mot_HHH_b2_03328_af2_000000127_0001_1_19_H_._HHH_b2_01231_0001_0000300042_0000002_0 (protein)
chain: SSSSNEESEEVYRLSRKALELLANGNPEEAEKVVERALEIAEENNNFALAFAAELALRAIGSSSS
B29: il10ra_site1_normal_mot_HHH_b1_07768_000000240_0001_18_35_H_._HHH_b2_05766_0001_0000100021_0000001_0 (protein)
chain: SSSSDRTLRFVVEFVLRVAEESAKEDPERARHQLERLAEHLKQADDEELLEEVERLLEEIGSSSS
B30: il10ra_site1_normal_mot_HHH_b2_03220_af2_000000223_0001_23_40_H_._HHH_b1_07482_0001_0000300031_0000001_0 (protein)
chain: SSSSSEEAEEVWELLRRALEIREKDPEEARELVEEAEEIAKEANNENLEFVIRFLLRDINSSSSS
B31: il10ra_site1_sap_26_mot_HHH_b2_07521_000000141_0001_20_37_H_._HHH_b2_01251_af2_0001_0000600023_0000001_0_0001 (protein)
chain: SSSDQESYEIAKRAIEEALELAKNGNPEEARRVLEEAIEELEELGNRLTVLQLRSLLELEKSSSS
B32: il10ra_site1_normal_mot_HHH_b1_06994_000000193_0001_40_55_H_._HHH_b1_08244_0001_0000300057_0000002_0 (protein)
chain: SSSSDELEELIKAALRLIRQALEHGDPRTARFLLLAAKIRIEELGDEELEEELRELEEEVESSSS
B33: il10ra_site1_normal_mot_HHH_b1_05609_af2_000000134_0001_1_18_H_._HHH_b2_04330_af2_0001_0000300024_0000001_0 (protein)
chain: SSSSSDNEQALRLSVEAFRLALRGNPEEARELLEEALELAEEANNERLFRQIEELLKAQHSSSSS
B34: il10ra_site1_normal_mot_HHH_b1_02062_000000185_0001_1_20_H_._HHH_b1_03085_0001_0000200006_0000002_0 (protein)
chain: SSSSSEREAYELSREAAEADSEGNPEEAREIAEEALELAEEAGNEVIAFTIRFLLKIIRENSSSS
B35: il10ra_site1_sap_27_mot_9c3e5e2d2b9ffb70dc788f52fbfab6d5_0001_1_000000198_0001_1_14_H_._HHH_b1_00765_0001_0000900024_0000001_0_0001 (protein)
chain: SSSSNEEYEEFKELVRLVVQLRRNGNPEEAKEVLKELEKLAEEANNWALRFVVELLERDLSSSSS
B36: il10ra_site1_sap_9_mot_HHH_b1_01307_000000115_0001_1_18_H_._HHH_b1_07449_0001_0000600036_0000001_0_0001 (protein)
chain: SSSSDEEIREEVEELLEEARRISNAQEVYELLKRAIELAAELNDPELFKLIHRVLREWQRSSSSS
B37: il10ra_site1_normal_mot_HHH_b2_03801_000000188_0001_20_36_H_._HHH_b1_08533_0001_0000100001_0000002_0 (protein)
chain: SSSSSSDVAERAVRRLLHAARQVDDEEYVRLTLRFAKALAEDANDPELEEEVERVERELSSSSSS

The binders below were run against il10ra, Q13651 (assay: yeast display titration).

Apparent Kd, inactive:
B1 no binding seen
B2 no binding seen
B3 no binding seen
B4 no binding seen
B5 no binding seen
B6 no binding seen
B7 no binding seen
B8 no binding seen
B9 no binding seen
B10 no binding seen
B11 no binding seen
B12 no binding seen
B13 no binding seen
B14 no binding seen
B15 no binding seen
B16 no binding seen
B17 no binding seen
B18 no binding seen
B19 no binding seen
B20 no binding seen
B21 no binding seen
B22 no binding seen
B23 no binding seen
B24 no binding seen
B25 no binding seen
B26 no binding seen
B27 no binding seen
B28 no binding seen
B29 no binding seen
B30 no binding seen
B31 no binding seen
B32 no binding seen
B33 no binding seen
B34 no binding seen
B35 no binding seen
B36 no binding seen
B37 no binding seen

Two records drawn at random from the list so far, as already listed:
Apparent Kd, inactive:
B32 no binding seen
B21 no binding seen
